Holding throughout (assay type): cell-based
The subject of test [1] is SW1990 pancreatic cancer cell line. Put plainly: CellTiter-Blue cell viability assay, SW1990. The note with it: Homo sapiens, 96 hours treatment. As to the method:
(§1) The in vitro anti-tumor activity of levormeloxifene or its pharmaceutically acceptable salt was evaluated in six human pancreatic cancer cell lines: AsPc 1 (A), BxPC3 (B), Miapaca2 (C), Panc 10.05 (D), SW1990 (E) and Panc 1 (F). AsPc 1 (A), BxPC3 (B), Miapaca2 (C), Panc 10.05 (D), SW1990 (E) and Panc 1 (F) were established at Oncotest from the corresponding human patient derived xenograft. CAPAN-2, HUP-T3 and PA-TU-8902 were purchased from DSMZ (Braunschweig, Germany). PANC-1 was purchased from CLS Cell Line Services GmbH (Eppelheim, Germany). BxPC-3, HPAC and MIA-Pa-Ca-2 were purchased from ATCC (Rockville, Md., USA). Authenticity of cell lines was confirmed at the DSMZ by STR (short tandem repeat) analysis, a PCR based DNA-fingerprinting methodology. Cell lines were routinely passaged once or twice weekly and maintained in culture for up to 20 passages. […] Briefly, cells were harvested from exponential phase cultures, counted and plated in 96-well flat-bottom microtiter plates at a cell density of 6,000-20,000 cells/well depending on the cell line's growth rate. […] Following an incubation period of up to four hours, fluorescence (FU) was measured by using the Enspire Multimode Plate Reader (excitation λ=531 nm, emission λ=615 nm). […]
For orientation: Resazurin is reduced to fluorescent resorufin, in cell work by metabolically active cells.

Test [2] has as its system AsPc 1 pancreatic cancer cell line. In words: CellTiter-Blue cell viability assay, AsPC1. The note with it: Homo sapiens, 96 hours treatment. As to the method:
as §1

In test [3] the test system is Miapaca2 pancreatic cancer cell line. Put plainly: CellTiter-Blue cell viability assay, Miapaca2. The following applies: Homo sapiens, MIA PaCa-2; Miapaca1 cell line as printed; 96 hours treatment. As to the method: as §1

`CC/C(=C(\c1ccccc1)c1ccc(OCCN(C)C)cc1)c1ccccc1` [TAM, tamoxifen, reference compound]: the IC50 in test [1] came out at 23 µM; in test [2] it was 15 µM; in test [3], 23 µM.

One may read the IC50 as the concentration that gives 50% inhibition. Low readings indicate inhibition by little substance, high ones a need for much substance.

Source of the values: patent US20210299098A1, “SELECTIVE ESTROGEN RECEPTOR MODULATOR FOR TREATMENT OF PANCREATIC CANCER” (CIPLA LIMITED, priority 2020, published 2021).
